PubChem BioAssay AID504784 | Drosophila RNAi Screening Center | 2011
Purpose: 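Genome-wide knock-down for genes giving too much or too little stored lipid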 (primary screen). System: Drosophila Kc167 embryonic cells. Reagents: long dsRNA against Drosophila genes, about 250 ng dsRNA per well. Timing: 4 days. Challenge: cells fed 400 µM oleic acid bound to BSA. Measured: 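Cells imaged and segmented; ratio of lipid droplet area to nuclear area, log-transformed, then normalised as a B-score over the screen; higher means more stored lipid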. Direction: droplet/nuclear area B-score: higher = more stored lipid (overstorage).
The screen tested about 17,000 reagents; below is an unselected part of those with a known target gene and a result. 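Each column is one replicate's B-score; the combined score over replicates was not deposited, so single values may mislead.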 A plus sign joins genes that one reagent is predicted to hit. Further read-outs or replicates are left out here.

droplet/nuclear area B-score, replicate 1, by gene knocked down and reagent
Cad88C (GeneID 41774): DRSC15486 0.232
CG11695 (GeneID 32106): DRSC19416 -1.31
Prosalpha3 (GeneID 37378): DRSC04644 0.47
CG14174 (GeneID 39139): DRSC10175 -0.596
Snoo (GeneID 5740414): DRSC03004 -0.922; DRSC03035 -0.498
CG34445 (GeneID 5740761): DRSC22404 -0.675
ana3 (GeneID 36341): DRSC06289 -0.515
Amy-d + Amy-p: DRSC21242 0.322
hoe2 (GeneID 33700): DRSC00459 1.76
SREBP (GeneID 40155): DRSC11182 -0.8
PIG-X (GeneID 246580): DRSC22721 -0.534
CG15170 (GeneID 35160): DRSC02471 0.451
ATP6AP2 (GeneID 41104): DRSC16420 -1.1
SAK (GeneID 40384): DRSC11879 -3.36; DRSC23329 -0.38
Evi5 (GeneID 32088): DRSC19421 -0.149
CG13978 (GeneID 43303): DRSC14720 -0.897
Oli (GeneID 35066): DRSC02866 -0.59
CR18217 (GeneID 8674109): DRSC21506 -1.39
CG14286 (GeneID 42280): DRSC14767 0.479
Lis-1 (GeneID 36791): DRSC07459 -2.02
Scsalpha2 (GeneID 42326): DRSC16003 -0.0244
LKRSDH (GeneID 34064): DRSC03015 0.214
Cpr57A + Obp57d: DRSC06708 -1.35; DRSC22719 -0.628
cry (GeneID 42305): DRSC16928 -0.00145
CG7420 (GeneID 33332): DRSC00704 0.406
sano (GeneID 37185): DRSC06165 -0.74
alpha-Man-Ib (GeneID 43436): DRSC14418 0.0248
CG9150 (GeneID 33856): DRSC03148 -2.19
fu (GeneID 32855): DRSC20333 -0.786
GalT1 (GeneID 36279): DRSC22238 0.0954
CG5104 (GeneID 40280): DRSC11765 -1.16
Rdh (GeneID 2769007): DRSC08063 1.08; DRSC08434 0.0223
CG11231 (retired record) (GeneID 43845): DRSC17207 -2.04
CG8773 (GeneID 41634): DRSC16444 0.036
Utx (GeneID 34377): DRSC02872 -0.334
CG32755 (GeneID 318192): DRSC18397 -0.115
CG33178 (GeneID 318913): DRSC19950 -0.84
svr (GeneID 30998): DRSC17293 0.176; DRSC18841 0.022
Trm7-34 (GeneID 42508): DRSC16171 -1
bcd + CR14578: DRSC20984 0.493
Ppt2 (GeneID 34564): DRSC02786 1.55
Usp39 (GeneID 32881): DRSC20032 1.21
CG13998 (GeneID 50423): DRSC02330 0.519
CG4116 (GeneID 31291): DRSC18348 0.122
RpS13 (GeneID 34149): DRSC03419 1.52
CG4928 (GeneID 32682): DRSC19342 -1.07
CG11413 + CG4622: DRSC04109 1.6
Cngl (GeneID 32468): DRSC20318 -2.56
Snx16 (GeneID 37015): DRSC06984 -0.759
lbm (GeneID 35623): DRSC07643 1.13

A stretch taken from the entries so far:
droplet/nuclear area B-score, replicate 1, by gene knocked down and reagent
CG7420 (GeneID 33332): DRSC00704 0.406
sano (GeneID 37185): DRSC06165 -0.74
alpha-Man-Ib (GeneID 43436): DRSC14418 0.0248
CG9150 (GeneID 33856): DRSC03148 -2.19
fu (GeneID 32855): DRSC20333 -0.786
GalT1 (GeneID 36279): DRSC22238 0.0954
CG5104 (GeneID 40280): DRSC11765 -1.16
Rdh (GeneID 2769007): DRSC08063 1.08; DRSC08434 0.0223
CG11231 (retired record) (GeneID 43845): DRSC17207 -2.04

More entries:
droplet/nuclear area B-score, replicate 1, by gene knocked down and reagent
CG42788 (GeneID 41817): DRSC15330 0.396; DRSC16139 -1.18; DRSC16152 0.0053
janB (GeneID 43568): DRSC16973 0.0495
CG2258 (GeneID 31729): DRSC18222 -0.344
CG11436 (GeneID 31386): DRSC17783 -1.29
Bug22 (GeneID 34429): DRSC02842 0.0603
pippin (GeneID 37770): DRSC04489 1.04
ppk14 (GeneID 33887): DRSC03238 0.0242
shu (GeneID 45360): DRSC04484 -0.895
CG30259 (GeneID 37606): DRSC04164 -0.298; DRSC04165 -0.507
CG13594 (GeneID 37940): DRSC04229 -0.131; DRSC23254 0.338
CG7017 (GeneID 40213): DRSC10762 0.0916
CG2209 (GeneID 32250): DRSC19843 -0.0195
CG34357 (GeneID 5740349): DRSC12211 0.67; DRSC12238 0.563; DRSC12334 -1.19; DRSC23031 0.022
CG17475 (GeneID 42069): DRSC15238 -1.9
TM9SF2 (GeneID 35335): DRSC03197 2
CG1824 (GeneID 32208): DRSC19796 1.07
Trmt61 (GeneID 43170): DRSC14888 -1.23
CG11269 (GeneID 37527): DRSC04094 0.616
hll (GeneID 34822): DRSC01944 1.14
dpr17 (GeneID 41470): DRSC12885 -0.314; DRSC14957 4.72; DRSC14958 1.4
